Data taken from ChEMBL document CHEMBL3988442, “University of Dundee, Small-Polar-MMV Screening Library” (2021).

A: 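Growth of Mycobacterium tuberculosis over 4 days (cholesterol / DPPC medium with tyloxapol); the read-out is not stated. Tested at 500 µM. Direction is inferred from retests: higher values go with more growth inhibition. About 18,000 compounds were tested under these conditions; 5% (about 900) showed 50% or more at least once.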
B: 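Whole-cell growth test on Mycobacterium tuberculosis, read after 3 days in glucose-containing 7H9 medium; the read-out is not stated. Concentration: 500 µM. Direction is inferred from retests: higher values go with more growth inhibition. Size under these conditions: about 18,000 compounds, about 1,400 of them at 50% or above in at least one test.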

Results are given as percent effect.
The controls that fix the scale are not given in the record; negative values are as filed.
Compounds were drawn at random from those tested, without regard to their results.

| structure | A | B |
|---|---|---|
| `Cc1ccc(C(CN)N2CCCC2)o1` (stereo not drawn) | 101.7 | 52.57 |
| `Cn1cc([C@@H]2OCCC[C@H]2CN)cn1` | 11.24 | 6.442 |
| `NC(=O)C1CCN(C(=O)c2cc3cc(Br)ccc3o2)C1` (stereo not drawn) | -10.2 | 5.813 |
| `CSc1ccccc1NC(=O)CNCC(C)O` (stereo not drawn) | 6.032 | 24.52 |
| `CC(=O)NCCCSCc1cnn(-c2ccccc2)c1` | 3.334 | -2.498 |
| `Cc1ccc(C(C)NC(=O)Nc2ccc(=O)n(C)c2)o1` (stereo not drawn) | 0.1814 | 6.461 |
| `COC[C@H]1CC[C@H]1N` | 3.509 | 8.302 |
| `O=C1CN(C2CC2)CCCN1` | -10.96 | -9.77 |
| `COc1ccc(C(=O)NC2CCC(O)CC2)c(F)c1` (stereo not drawn) | -12.54 | -1.344 |
| `CCNC(=O)NC(=O)CN(C)Cc1ccccc1` | 49.89 | 50.88 |
| `N[C@H]1C[C@@H](c2cc(NCC3CCOCC3)ncn2)C1` | -4.441 | -4.969 |
| `N[C@@H]1CCOc2cc(F)ccc21` | 33.95 | 33.88 |
| `CCc1n[nH]c(=O)n1CC` | 5.111 | 10.86 |
| `Cn1nnc2c(N3CCCCC3)ncnc21` | -8.369 | 15.7 |
| `CC(C)C(C)N(C)c1ccc2nnnn2n1` (stereo not drawn) | -9.337 | -1.041 |
| `COc1ccc(OC)c(C(=O)NCc2c[nH]nn2)c1` | 19.98 | 19.59 |
| `CCC(CC)CN(CCC#N)C(=O)c1cccnc1` | 20.95 | 11.1 |
| `Cc1noc(C)c1CN1CCn2nc(CO)cc2C1` | -2.617 | 0.486 |
| `COCCN1CCN(Cc2ccc(C#N)cc2F)CC1` | 11.1 | 13.57 |
| `NC(=O)c1ccsc1NC(=O)CCN1CCCCC1` | 35.99 | 53.99 |
| `CC(C)(C)NC(=O)N1CCCC1(C)CO` (stereo not drawn) | 1.91 | 3.497 |
| `CNCC(=O)N1CCCC(OCc2ccccn2)C1` (stereo not drawn) | 3.392 | -3.249 |
| `Cc1cncc(C(=O)N(C)C2(C(N)=O)CCCC2)c1` | -16.83 | -9.673 |
| `O=C(NCCn1c(=O)oc2ccccc21)C1CCCC1` | 30.7 | -7.822 |
| `CC(C)c1nnc(CNC(=O)NCC(F)(F)F)n1C` | -4.628 | -5.202 |
| `Cc1cc(C(=O)N2CCN(C)CC(O)C2)sc1C` (stereo not drawn) | 6.598 | 16.82 |
| `COc1ccc(C(N)CCO)cc1` (stereo not drawn) | -8.046 | 4.747 |
| `Cc1cccc(C(=O)N2CCCN(CCC#N)CC2)c1` | -5.33 | 4.255 |
| `Cc1ccnc(NC(=O)C2CC(=O)N(C3CC3)C2)c1` (stereo not drawn) | -5.554 | -7.597 |
| `CC1=CCN(CCN)CC1` | -3.191 | -1.574 |
| `CN1C(=O)[C@H]2CN(Cc3ccsc3)C[C@H]2C1=O` | 6.649 | 3.554 |
| `CC(=O)N(C)c1ccc(S(N)(=O)=O)cc1` | 1.589 | 0.296 |
| `c1cnc2nc(N3CCNCC3)oc2c1` | 2.805 | -5.318 |
| `Cc1cc(C)n(-c2ccc(CNC(=O)C(C)N)cn2)n1` (stereo not drawn) | 31.47 | 40.24 |
| `COCC(N)C1CCOCC1` (stereo not drawn) | 7.237 | 3.955 |
| `CNC(=O)[C@@H]1C[C@H](N)CN1C(=O)C1(C(F)(F)F)CC1` | 7.046 | 10.41 |
| `CN(C(=O)CCc1ccnn1C)C1CCNCC1` | -4.115 | -7.471 |
| `Cc1ccc(NC(=O)c2cc[nH]n2)cc1C(=O)N(C)C` | 2.362 | 9.652 |
| `Cc1cc(C(=O)NCCc2noc(C3CC3)n2)nn1C` | 7.639 | 4.531 |
| `CNC(=O)CN(C)C(=O)c1cnn(-c2ccccc2)c1` | 11.92 | -0.03065 |
| `Cc1nc(CCN(C)C(=O)CCc2cccnc2)no1` | -1.821 | 8.268 |
| `Cc1c[nH]c(C(=O)N2CCCC[C@H](N(C)C)C2)n1` | 0.4622 | 12.47 |
| `CCc1ccc(CN(C)C(=O)c2cccc(N)n2)nc1` | 6.551 | 23.66 |
| `CC(C)OCCS(=O)(=O)NC1(CN)CCCC1` | 12.41 | 9.288 |
| `CC(O)(CN)c1ccc(F)cc1` (stereo not drawn) | 4.646 | -1.17 |
| `O=C(NC1CCNCC1)c1ccc[nH]1` | 4.185 | 1.8 |
| `CCNC(=O)CCN1C[C@H](C2CC2)[C@@H](N)C1` | 4.508 | 3.822 |
| `O=C(NC1CC1)c1cnn(Cc2ccccc2)c1` | 34.09 | 42.1 |
| `O=C(NC1CCCN(C2CCCC2)C1)c1cnc[nH]1` (stereo not drawn) | 5.436 | -2.436 |
| `CCOC(=O)c1ccc2c(c1)CCN2S(C)(=O)=O` | -25.07 | 46.98 |
| `Cc1cc(NC(=O)NC(C)Cn2ccnc2)no1` (stereo not drawn) | -7.133 | -3.693 |
| `O=C(Nc1nc(-c2ccsc2)ns1)C1CCCN1` (stereo not drawn) | 64.9 | 33.79 |
| `c1c[nH]c(C2CCCNC2)n1` (stereo not drawn) | -10.09 | -16.46 |
| `CCC1=NOC(CN2CCN(c3nc[nH]n3)CC2)C1` (stereo not drawn) | 6.9 | 3.713 |
| `CC(C)CC(=O)Nc1cccc(CN)c1` | -2.133 | -4.294 |
| `Cc1cc2cc(C(=O)N3CC[C@@H](N)[C@H](O)C3)ccc2o1` | 2.06 | 35.09 |
| `Nc1nnc(CCNC(=O)CCc2cccnc2)s1` | -5.496 | -0.5035 |
| `CS(=O)(=O)Nc1cccc(C(=O)NCc2ccco2)c1` | -5.496 | 29.71 |
| `Clc1cnc(C2CCNCC2)nc1` | 3.935 | -14.48 |
| `Cc1nnc(CNC(=O)Nc2ccc(F)cc2)o1` | 10.78 | 9.792 |
| `Cc1cnccc1NCCNC(=O)Cc1ccccn1` | 13.94 | 9.909 |
| `CC1CN(CCS(C)(=O)=O)CCN1c1nccs1` (stereo not drawn) | 3.683 | 7.963 |
| `CSCCC(O)c1nc(C2CCOCC2)n[nH]1` (stereo not drawn) | 6.094 | 7.618 |
| `COCCN1CCC(CN)CC1` | -28.01 | -23.57 |
| `COc1ccnc(NC2CCCNC2=O)n1` (stereo not drawn) | -14.86 | 12.42 |
| `Cc1ccc(Cl)cc1NC(=O)CN1CCN(C)CC1` | 35.33 | 41.34 |
| `CC(=O)N1CCCn2nc(-c3cccnc3)cc2C1` | 2.023 | 6.345 |
| `O=C1NCCCC12CCCNC2` (stereo not drawn) | 32.9 | -17.61 |
| `CC(N)c1nc2ccccc2n1C` (stereo not drawn) | -11.53 | 7.563 |
| `COCCCNC(=O)N1CCCN(CC(C)C)CC1` | 7.254 | 13.85 |
| `NC(CO)C1CCOCC1` (stereo not drawn) | 1.9 | 9.011 |